Data published in PMC12752627, “Discovery of a Potent and Selective TEAD Degrader with Durable Degradation Activity” (Advanced Science, 2025).
Further values from the same series stand in other lists.

System: 867 cancer cell lines
Test: PRISM assay (barcoded cell line screening, 5 days);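 also: top test concentration 10 mM in eight-point dilution series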
Format: cell-based
Parameters: scale not given here
Procedure: The principle of the PRISM assay has been described elsewhere and was conducted as previously outlined by the PRISM team at the Broad Institute.^[ [14], [31] ^] In PRISM (MTS027) experiments, KG‐FP‐003 was tested across 867 different cancer cell lines. Cells were treated with eight concentration gradients, ranging from 4.6 nM to […], in triplicate dilutions over a period of five days. Each plate was treated with 20 µM bortezomib as a positive control and DMSO as a negative control. Three replicate experiments were performed for each compound. The resulting data were analyzed using GraphPad PRISM 9.5.

CNC(=O)c1cc2c(c(F)c1-c1c(Cl)c(F)cc3c1C[C@@](CN[C@H]1CC[C@H](C(=O)N4CCC(CC5CCN(C(=O)COc6ccc(N7CCC(=O)NC7=O)c(C)c6)CC5)CC4)CC1)(c1ccccc1)O3)[C@@H](O)[C@@H](C)C2 [KG-FP-003]
KG-FP-003-AUC (SKMEL5_SKIN, PR500): 1.00 | KG-FP-003-AUC (SKMEL24_SKIN, PR500): 0.91 | KG-FP-003-AUC (SKMEL28_SKIN, PR300): 0.98 | KG-FP-003-AUC (SKMEL30_SKIN, PR500): 0.70 | KG-FP-003-AUC (SKMES1_LUNG, PR500): 0.84 | KG-FP-003-AUC (SKNAS_AUTONOMIC_GANGLIA, PR300): 1.00 | KG-FP-003-AUC (SKNAS_AUTONOMIC_GANGLIA, PR500): 1.00 | KG-FP-003-AUC (SKNBE2_AUTONOMIC_GANGLIA, PR300): 0.98 | KG-FP-003-AUC (SKNBE2_AUTONOMIC_GANGLIA, PR500): 0.98 | KG-FP-003-AUC (SKNDZ_AUTONOMIC_GANGLIA, PR300): 1.00 | KG-FP-003-AUC (SKNFI_AUTONOMIC_GANGLIA, PR300): 1.00 | KG-FP-003-AUC (SKNO1_HAEMATOPOIETIC_AND_LYMPHOID_TISSUE, PR300): 0.91 | KG-FP-003-AUC (SKN_ENDOMETRIUM, PR300): 0.76 | KG-FP-003-AUC (SKOV3_OVARY, PR500): 0.99 | KG-FP-003-AUC (SKPNDW_BONE, PR300): 0.91 | KG-FP-003-AUC (SKUT1_SOFT_TISSUE, PR500): 0.90 | KG-FP-003-AUC (SMSCTR_SOFT_TISSUE, PR300): 0.92 | KG-FP-003-AUC (SNB75_CENTRAL_NERVOUS_SYSTEM, PR500): 0.90 | KG-FP-003-AUC (SNGM_ENDOMETRIUM, PR500): 0.24 | KG-FP-003-AUC (SNU1_STOMACH, PR300): 0.78 | KG-FP-003-AUC (SNU46_UPPER_AERODIGESTIVE_TRACT, PR500): 0.59 | KG-FP-003-AUC (SNU61_LARGE_INTESTINE, PR500): 0.81 | KG-FP-003-AUC (SNU81_LARGE_INTESTINE, PR500): 0.83 | KG-FP-003-AUC (SNU119_OVARY, PR300): 0.72 | KG-FP-003-AUC (SNU182_LIVER, PR300): 0.43 | KG-FP-003-AUC (SNU201_CENTRAL_NERVOUS_SYSTEM, PR300): 0.88 | KG-FP-003-AUC (SNU213_PANCREAS, PR500): 0.88 | KG-FP-003-AUC (SNU216_STOMACH, PR300): 0.75 | KG-FP-003-AUC (SNU245_BILIARY_TRACT, PR500): 1.00 | KG-FP-003-AUC (SNU308_BILIARY_TRACT, PR500): 1.00 | KG-FP-003-AUC (SNU398_LIVER, PR500): 0.98 | KG-FP-003-AUC (SNU407_LARGE_INTESTINE, PR500): 0.99 | KG-FP-003-AUC (SNU423_LIVER, PR500): 0.41 | KG-FP-003-AUC (SNU449_LIVER, PR500): 0.84 | KG-FP-003-AUC (SNU466_CENTRAL_NERVOUS_SYSTEM, PR500): 0.36 | KG-FP-003-AUC (SNU478_BILIARY_TRACT, PR300): 0.94 | KG-FP-003-AUC (SNU489_CENTRAL_NERVOUS_SYSTEM, PR300): 0.68 | KG-FP-003-AUC (SNU601_STOMACH, PR500): 0.94 | KG-FP-003-AUC (SNU638_STOMACH, PR300): 0.90 | KG-FP-003-AUC (SNU668_STOMACH, PR500): 0.44 | KG-FP-003-AUC (SNU685_ENDOMETRIUM, PR500): 0.96 | KG-FP-003-AUC (SNU719_STOMACH, PR500): 0.96 | KG-FP-003-AUC (SNU761_LIVER, PR500): 0.88 | KG-FP-003-AUC (SNU840_OVARY, PR500): 0.78 | KG-FP-003-AUC (SNU869_BILIARY_TRACT, PR500): 0.99 | KG-FP-003-AUC (SNU878_LIVER, PR300): 0.86 | KG-FP-003-AUC (SNU886_LIVER, PR500): 0.77 | KG-FP-003-AUC (SNU899_UPPER_AERODIGESTIVE_TRACT, PR300): 0.54 | KG-FP-003-AUC (SNU1041_UPPER_AERODIGESTIVE_TRACT, PR500): 0.77 | KG-FP-003-AUC (SNU1066_UPPER_AERODIGESTIVE_TRACT, PR500): 0.99 | KG-FP-003-AUC (SNU1076_UPPER_AERODIGESTIVE_TRACT, PR500): 0.72 | KG-FP-003-AUC (SNU1077_ENDOMETRIUM, PR500): 0.62 | KG-FP-003-AUC (SNU1079_BILIARY_TRACT, PR500): 0.77 | KG-FP-003-AUC (SNU1105_CENTRAL_NERVOUS_SYSTEM, PR500): 0.72 | KG-FP-003-AUC (SNU1196_BILIARY_TRACT, PR500): 1.00 | KG-FP-003-AUC (SNU1214_UPPER_AERODIGESTIVE_TRACT, PR500): 0.84 | KG-FP-003-AUC (SNU1544_LARGE_INTESTINE, PR300): 0.91 | KG-FP-003-AUC (SNU2372_BREAST, PR300): 1.00 | KG-FP-003-AUC (SNUC2A_LARGE_INTESTINE, PR500): 0.92 | KG-FP-003-AUC (SNUC4_LARGE_INTESTINE, PR500): 1.00 | KG-FP-003-AUC (SQ1_LUNG, PR500): 0.60 | KG-FP-003-AUC (SSP25_BILIARY_TRACT, PR300): 0.93 | KG-FP-003-AUC (STM9101_SOFT_TISSUE, PR300): 0.99 | KG-FP-003-AUC (SUDHL1_HAEMATOPOIETIC_AND_LYMPHOID_TISSUE, PR300): 0.70 | KG-FP-003-AUC (SUDHL4_HAEMATOPOIETIC_AND_LYMPHOID_TISSUE, PR300): 0.91 | KG-FP-003-AUC (SUDHL8_HAEMATOPOIETIC_AND_LYMPHOID_TISSUE, PR300): 0.97 | KG-FP-003-AUC (SUIT2_PANCREAS, PR500): 1.00 | KG-FP-003-AUC (SUM149PT_BREAST, PR300): 0.66 | KG-FP-003-AUC (SUM159PT_BREAST, PR300): 0.96 | KG-FP-003-AUC (SUPB15_HAEMATOPOIETIC_AND_LYMPHOID_TISSUE, PR300): 0.98 | KG-FP-003-AUC (SUPT11_HAEMATOPOIETIC_AND_LYMPHOID_TISSUE, PR300): 0.91 | KG-FP-003-AUC (SUSA_TESTIS, PR300): 0.97 | KG-FP-003-AUC (SW13_ADRENAL_CORTEX, ACH-001401, PR300): 0.99 | KG-FP-003-AUC (SW156_KIDNEY, ACH-001398, PR300): 0.91 | KG-FP-003-AUC (SW480_LARGE_INTESTINE, ACH-000842, PR500): 0.99 | KG-FP-003-AUC (SW579_THYROID, ACH-000163, PR500): 0.51 | KG-FP-003-AUC (SW620_LARGE_INTESTINE, ACH-000651, PR500): 0.99 | KG-FP-003-AUC (SW626_LARGE_INTESTINE, ACH-001399, PR300): 0.53 | KG-FP-003-AUC (SW756_CERVIX, ACH-001402, PR300): 0.93 | KG-FP-003-AUC (SW780_URINARY_TRACT, ACH-000384, PR500): 0.95 | KG-FP-003-AUC (SW837_LARGE_INTESTINE, ACH-000421, PR500): 1.00 | KG-FP-003-AUC (SW900_LUNG, ACH-000669, PR500): 0.82 | KG-FP-003-AUC (SW948_LARGE_INTESTINE, ACH-000680, PR500): 1.00 | KG-FP-003-AUC (SW954_CERVIX, ACH-001400, PR300): 0.56 | KG-FP-003-AUC (SW1088_CENTRAL_NERVOUS_SYSTEM, PR500): 0.74 | KG-FP-003-AUC (SW1116_LARGE_INTESTINE, ACH-000489, PR300): 0.97 | KG-FP-003-AUC (SW1271_LUNG, ACH-000890, PR500): 0.78 | KG-FP-003-AUC (SW1353_BONE, ACH-000418, PR500): 0.52 | KG-FP-003-AUC (SW1463_LARGE_INTESTINE, ACH-000470, PR300): 0.89 | KG-FP-003-AUC (SW1573_LUNG, ACH-000677, PR500): 0.97 | KG-FP-003-AUC (SW1710_URINARY_TRACT, ACH-000566, PR500): 0.56 | KG-FP-003-AUC (SW1783_CENTRAL_NERVOUS_SYSTEM, ACH-000883, PR300): 0.98 | KG-FP-003-AUC (SW1990_PANCREAS, ACH-000155, PR500): 0.78 | KG-FP-003-AUC (T3M5_THYROID, ACH-002042, PR300): 0.70 | KG-FP-003-AUC (T3M10_LUNG, ACH-000813, PR500): 0.98
